According to the supplement of paper PMC12823440, “Inhibitors supercharge kinase turnover through native proteolytic circuits” (Nature, 2025):
Structures can show the parent of a compound that is named as a salt. This is one part of the list. Hit calls seldom repeat between salt and free forms of one compound.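 In K562 cells expressing nanoluciferase-fused kinases, luminescence was recorded at 4 h intervals between 2 and 18 h, normalized as percent of control with DMSO at 100% and a positive control at 0%. A significant (2 sigma) signal drop marks a time point as decreased. The authors' rule for a hit is not shown and takes in more than the number of time points.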

Amino acid sequences for entries named in this document (tags omitted). A change or cut given only in a name is not applied to a line headed by its entry.
UniProt P28482, whole entry: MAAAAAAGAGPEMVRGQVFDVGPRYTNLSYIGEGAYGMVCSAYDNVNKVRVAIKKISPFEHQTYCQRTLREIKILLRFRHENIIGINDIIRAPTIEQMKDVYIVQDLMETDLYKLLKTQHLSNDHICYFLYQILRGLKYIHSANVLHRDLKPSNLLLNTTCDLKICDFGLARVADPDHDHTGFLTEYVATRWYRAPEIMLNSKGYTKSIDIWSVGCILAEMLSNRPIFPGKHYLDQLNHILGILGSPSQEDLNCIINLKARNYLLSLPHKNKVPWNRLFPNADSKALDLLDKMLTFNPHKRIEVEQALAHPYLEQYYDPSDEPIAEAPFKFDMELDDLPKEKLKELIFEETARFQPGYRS
UniProt P31152, whole entry: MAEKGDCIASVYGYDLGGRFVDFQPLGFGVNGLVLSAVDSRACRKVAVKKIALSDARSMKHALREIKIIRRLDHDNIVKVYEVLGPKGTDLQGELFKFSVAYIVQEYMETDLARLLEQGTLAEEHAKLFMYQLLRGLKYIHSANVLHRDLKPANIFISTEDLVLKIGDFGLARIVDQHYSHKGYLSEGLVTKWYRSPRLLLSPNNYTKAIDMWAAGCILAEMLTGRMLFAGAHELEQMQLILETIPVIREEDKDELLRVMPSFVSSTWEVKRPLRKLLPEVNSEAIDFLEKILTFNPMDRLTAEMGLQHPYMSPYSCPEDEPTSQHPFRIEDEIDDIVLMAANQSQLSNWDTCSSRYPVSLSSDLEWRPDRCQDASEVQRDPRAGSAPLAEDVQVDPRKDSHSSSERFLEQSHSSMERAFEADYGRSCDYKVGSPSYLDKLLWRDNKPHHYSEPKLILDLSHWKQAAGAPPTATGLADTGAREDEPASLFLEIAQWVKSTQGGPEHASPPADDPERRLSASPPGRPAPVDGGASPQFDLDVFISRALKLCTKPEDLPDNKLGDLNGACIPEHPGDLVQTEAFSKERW
UniProt P49137, whole entry, looked up: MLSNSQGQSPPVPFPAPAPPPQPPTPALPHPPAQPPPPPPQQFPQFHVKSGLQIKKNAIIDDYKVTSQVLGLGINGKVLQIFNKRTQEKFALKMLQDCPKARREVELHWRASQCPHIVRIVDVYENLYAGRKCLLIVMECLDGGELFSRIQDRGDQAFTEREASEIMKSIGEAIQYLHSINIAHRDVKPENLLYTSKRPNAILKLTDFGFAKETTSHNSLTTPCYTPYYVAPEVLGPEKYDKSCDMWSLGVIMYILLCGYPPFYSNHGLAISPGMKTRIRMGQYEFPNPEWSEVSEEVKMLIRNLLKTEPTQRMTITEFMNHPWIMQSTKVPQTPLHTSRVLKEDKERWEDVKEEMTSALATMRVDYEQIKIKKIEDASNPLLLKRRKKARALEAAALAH
UniProt Q9BUB5: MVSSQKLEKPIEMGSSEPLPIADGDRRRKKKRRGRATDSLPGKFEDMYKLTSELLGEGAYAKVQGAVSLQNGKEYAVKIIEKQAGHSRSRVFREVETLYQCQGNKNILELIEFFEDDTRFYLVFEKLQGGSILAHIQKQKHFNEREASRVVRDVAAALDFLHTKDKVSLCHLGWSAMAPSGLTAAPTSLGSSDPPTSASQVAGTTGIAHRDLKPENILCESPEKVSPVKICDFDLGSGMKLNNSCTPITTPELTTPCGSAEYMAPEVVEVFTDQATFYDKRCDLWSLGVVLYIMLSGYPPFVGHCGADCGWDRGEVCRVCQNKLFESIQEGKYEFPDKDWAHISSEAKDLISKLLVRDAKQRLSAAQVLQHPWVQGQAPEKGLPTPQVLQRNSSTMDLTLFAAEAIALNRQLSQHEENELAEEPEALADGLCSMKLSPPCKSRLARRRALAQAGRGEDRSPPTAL
UniProt Q16620, whole entry, looked up: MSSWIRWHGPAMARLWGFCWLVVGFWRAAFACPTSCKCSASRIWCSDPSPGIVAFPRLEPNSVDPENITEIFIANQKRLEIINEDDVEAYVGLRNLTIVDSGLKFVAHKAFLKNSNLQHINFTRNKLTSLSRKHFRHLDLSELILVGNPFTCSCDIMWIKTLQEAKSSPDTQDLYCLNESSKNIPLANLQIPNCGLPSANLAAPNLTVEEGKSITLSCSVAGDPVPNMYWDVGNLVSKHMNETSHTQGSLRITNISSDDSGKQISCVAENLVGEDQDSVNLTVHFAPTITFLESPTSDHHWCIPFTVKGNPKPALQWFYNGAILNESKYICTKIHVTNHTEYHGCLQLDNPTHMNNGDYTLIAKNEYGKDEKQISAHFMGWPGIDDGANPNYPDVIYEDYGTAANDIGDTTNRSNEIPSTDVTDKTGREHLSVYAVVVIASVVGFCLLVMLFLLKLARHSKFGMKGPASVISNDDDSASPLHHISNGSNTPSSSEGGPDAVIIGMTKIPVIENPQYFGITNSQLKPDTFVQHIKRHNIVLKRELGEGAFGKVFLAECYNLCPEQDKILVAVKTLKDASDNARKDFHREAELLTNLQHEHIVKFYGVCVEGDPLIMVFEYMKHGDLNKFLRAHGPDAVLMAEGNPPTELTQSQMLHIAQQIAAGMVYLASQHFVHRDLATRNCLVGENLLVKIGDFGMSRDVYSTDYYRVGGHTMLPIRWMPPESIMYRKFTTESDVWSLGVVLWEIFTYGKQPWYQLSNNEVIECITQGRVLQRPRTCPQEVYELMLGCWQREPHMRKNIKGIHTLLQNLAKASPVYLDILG
UniProt O96013: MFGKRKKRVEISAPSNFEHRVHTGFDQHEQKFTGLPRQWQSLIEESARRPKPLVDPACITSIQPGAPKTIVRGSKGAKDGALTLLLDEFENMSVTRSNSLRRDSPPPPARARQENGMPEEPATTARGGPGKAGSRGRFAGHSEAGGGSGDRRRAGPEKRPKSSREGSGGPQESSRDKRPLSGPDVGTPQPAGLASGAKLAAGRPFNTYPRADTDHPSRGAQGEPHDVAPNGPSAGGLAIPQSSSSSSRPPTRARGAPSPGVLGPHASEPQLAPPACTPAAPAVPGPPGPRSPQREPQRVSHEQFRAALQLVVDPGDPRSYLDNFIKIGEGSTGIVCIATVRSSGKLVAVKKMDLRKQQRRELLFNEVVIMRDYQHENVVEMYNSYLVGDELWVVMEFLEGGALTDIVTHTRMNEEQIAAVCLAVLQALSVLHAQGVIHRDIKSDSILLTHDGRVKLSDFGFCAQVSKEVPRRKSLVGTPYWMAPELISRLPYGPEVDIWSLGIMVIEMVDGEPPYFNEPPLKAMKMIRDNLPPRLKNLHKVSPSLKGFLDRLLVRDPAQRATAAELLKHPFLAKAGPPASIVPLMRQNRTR
UniProt Q96KB5: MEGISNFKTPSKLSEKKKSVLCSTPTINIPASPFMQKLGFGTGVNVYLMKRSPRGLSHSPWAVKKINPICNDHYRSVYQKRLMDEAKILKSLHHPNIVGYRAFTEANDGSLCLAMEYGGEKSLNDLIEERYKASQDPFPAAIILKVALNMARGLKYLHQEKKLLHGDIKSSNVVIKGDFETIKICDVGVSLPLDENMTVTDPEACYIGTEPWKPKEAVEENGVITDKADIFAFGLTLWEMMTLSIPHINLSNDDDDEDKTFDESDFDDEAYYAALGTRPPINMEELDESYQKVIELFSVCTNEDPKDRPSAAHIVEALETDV
UniProt P09619, whole entry: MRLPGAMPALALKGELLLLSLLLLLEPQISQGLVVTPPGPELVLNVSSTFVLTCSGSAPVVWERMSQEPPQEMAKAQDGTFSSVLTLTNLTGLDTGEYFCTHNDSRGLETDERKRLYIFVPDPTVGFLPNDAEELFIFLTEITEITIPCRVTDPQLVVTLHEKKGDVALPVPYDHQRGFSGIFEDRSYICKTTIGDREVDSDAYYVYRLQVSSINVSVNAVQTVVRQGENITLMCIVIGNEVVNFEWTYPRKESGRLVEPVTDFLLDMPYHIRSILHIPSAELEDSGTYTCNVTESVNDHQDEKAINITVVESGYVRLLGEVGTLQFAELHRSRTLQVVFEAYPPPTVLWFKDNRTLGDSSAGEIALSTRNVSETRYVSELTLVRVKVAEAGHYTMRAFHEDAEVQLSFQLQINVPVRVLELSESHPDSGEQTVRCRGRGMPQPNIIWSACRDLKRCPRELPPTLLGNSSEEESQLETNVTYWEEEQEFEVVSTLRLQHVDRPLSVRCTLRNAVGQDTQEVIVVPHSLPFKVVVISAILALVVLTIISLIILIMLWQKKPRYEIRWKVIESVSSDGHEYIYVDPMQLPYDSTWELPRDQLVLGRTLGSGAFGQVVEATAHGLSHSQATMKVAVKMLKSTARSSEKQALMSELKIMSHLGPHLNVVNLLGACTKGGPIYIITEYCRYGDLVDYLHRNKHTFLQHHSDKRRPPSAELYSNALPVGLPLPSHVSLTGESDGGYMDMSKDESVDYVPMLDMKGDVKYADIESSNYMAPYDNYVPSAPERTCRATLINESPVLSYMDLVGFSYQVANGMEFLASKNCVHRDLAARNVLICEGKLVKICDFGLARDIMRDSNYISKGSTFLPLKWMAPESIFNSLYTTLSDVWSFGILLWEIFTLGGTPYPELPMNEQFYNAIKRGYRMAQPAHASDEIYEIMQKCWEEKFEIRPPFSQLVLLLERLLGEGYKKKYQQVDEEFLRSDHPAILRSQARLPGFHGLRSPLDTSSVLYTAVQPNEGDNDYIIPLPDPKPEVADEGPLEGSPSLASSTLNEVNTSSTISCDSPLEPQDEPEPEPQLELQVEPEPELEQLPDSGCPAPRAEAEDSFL
UniProt Q15118, whole entry, looked up: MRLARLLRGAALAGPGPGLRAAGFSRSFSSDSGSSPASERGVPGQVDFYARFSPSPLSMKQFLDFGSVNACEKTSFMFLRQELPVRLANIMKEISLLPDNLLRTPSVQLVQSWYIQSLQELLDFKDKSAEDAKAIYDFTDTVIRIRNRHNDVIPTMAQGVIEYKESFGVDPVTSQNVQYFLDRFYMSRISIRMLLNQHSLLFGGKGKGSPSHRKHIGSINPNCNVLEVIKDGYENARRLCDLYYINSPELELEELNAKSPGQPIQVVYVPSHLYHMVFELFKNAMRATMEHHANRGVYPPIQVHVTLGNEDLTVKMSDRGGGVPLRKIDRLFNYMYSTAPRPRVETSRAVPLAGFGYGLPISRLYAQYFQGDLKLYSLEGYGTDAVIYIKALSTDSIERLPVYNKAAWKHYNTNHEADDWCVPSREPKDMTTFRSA
UniProt O15530: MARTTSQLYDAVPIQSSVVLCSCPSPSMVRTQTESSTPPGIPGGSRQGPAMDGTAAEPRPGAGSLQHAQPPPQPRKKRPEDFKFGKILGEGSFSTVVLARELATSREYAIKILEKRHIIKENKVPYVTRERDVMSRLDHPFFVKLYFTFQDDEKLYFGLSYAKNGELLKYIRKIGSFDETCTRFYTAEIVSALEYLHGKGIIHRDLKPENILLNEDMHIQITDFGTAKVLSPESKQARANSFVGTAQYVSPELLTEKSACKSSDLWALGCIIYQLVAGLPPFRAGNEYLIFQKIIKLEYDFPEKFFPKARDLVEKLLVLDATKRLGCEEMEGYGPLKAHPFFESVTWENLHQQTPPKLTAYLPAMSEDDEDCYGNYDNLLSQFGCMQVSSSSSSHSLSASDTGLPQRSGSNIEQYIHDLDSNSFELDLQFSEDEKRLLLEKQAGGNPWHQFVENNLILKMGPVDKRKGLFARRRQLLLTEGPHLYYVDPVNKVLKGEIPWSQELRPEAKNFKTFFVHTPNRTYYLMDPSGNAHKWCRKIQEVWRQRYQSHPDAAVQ
UniProt Q13131: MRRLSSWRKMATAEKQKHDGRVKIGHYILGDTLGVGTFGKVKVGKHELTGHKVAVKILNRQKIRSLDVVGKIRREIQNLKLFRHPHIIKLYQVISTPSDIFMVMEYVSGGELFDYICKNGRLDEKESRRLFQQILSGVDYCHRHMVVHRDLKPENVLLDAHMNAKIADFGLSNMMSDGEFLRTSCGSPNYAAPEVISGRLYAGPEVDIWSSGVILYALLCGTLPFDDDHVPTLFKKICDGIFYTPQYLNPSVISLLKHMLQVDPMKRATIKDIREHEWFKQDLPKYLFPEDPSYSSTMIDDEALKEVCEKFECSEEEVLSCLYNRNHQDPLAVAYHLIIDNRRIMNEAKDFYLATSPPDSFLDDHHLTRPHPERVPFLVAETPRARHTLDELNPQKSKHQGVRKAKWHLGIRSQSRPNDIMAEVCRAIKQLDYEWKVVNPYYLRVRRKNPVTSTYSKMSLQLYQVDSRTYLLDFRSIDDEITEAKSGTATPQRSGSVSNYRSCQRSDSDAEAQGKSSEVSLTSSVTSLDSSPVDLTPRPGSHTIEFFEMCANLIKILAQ

Experiments:
Test in all cases: kinase-Nluc reporter destabilization hit call (1 = scored as downregulated) (binary); higher = compound decreases kinase abundance
Details in all cases: K562; 2-18 h
[1] = target: MAPK1 (UniProt P28482)
[2] = target: MAPK4 (UniProt P31152)
[3] = target: MAPKAPK2 (UniProt P49137)
[4] = target: MKNK1 (UniProt Q9BUB5)
[5] = target: NTRK2 (UniProt Q16620)
[6] = target: NTRK3 (UniProt Q16288)
[7] = target: PAK4 (UniProt O96013)
[8] = target: PBK (UniProt Q96KB5)
[9] = target: PDGFRB (UniProt P09619)
[10] = target: PDK1 (UniProt Q15118)
[11] = target: PDPK1 (UniProt O15530)
[12] = target: PIK4CA (UniProt P42356)
[13] = target: PIK4CB (UniProt Q9UBF8)
[14] = target: PLK1 (UniProt P53350)
[15] = target: PRKAA1 (UniProt Q13131)
[16] = target: PRKCA (UniProt P17252)
[17] = target: PTK2 (UniProt Q05397)
[18] = target: PTK2B (UniProt Q14289)
[19] = target: RAF1 (UniProt P04049)
[20] = target: RAF1_S257L (clone: RAF1_mut) (UniProt P04049)

Measured: kinase-Nluc reporter destabilization hit call

Nc1cccc(-c2cc3c(Oc4cccc(O)c4)ncnc3[nH]2)c1 (10 µM)
inactive: [1] 0 | [2] 0 | [3] 0 | [4] 0 | [5] 0 | [6] 0 | [7] 0 | [8] 0 | [9] 0 | [10] 0 | [11] 0 | [12] 0 | [13] 0 | [14] 0 | [15] 0 | [16] 0 | [17] 0 | [18] 0 | [19] 0 | [20] 0

c1cc(NC2CCNCC2)nc(-c2cnc3ccccn23)c1 [IRAK inhibitor 1] (10 µM)
inactive: [1] 0 | [2] 0 | [3] 0 | [4] 0 | [5] 0 | [6] 0 | [7] 0 | [8] 0 | [9] 0 | [10] 0 | [11] 0 | [12] 0 | [13] 0 | [14] 0 | [15] 0 | [16] 0 | [17] 0 | [18] 0 | [19] 0 | [20] 0

Cc1cc2sc(NC(=O)Cc3ccccc3)nc2cc1Cl (10 µM)
inactive: [1] 0 | [2] 0 | [3] 0 | [4] 0 | [5] 0 | [6] 0 | [7] 0 | [8] 0 | [9] 0 | [10] 0 | [11] 0 | [12] 0 | [13] 0 | [14] 0 | [15] 0 | [16] 0 | [17] 0 | [18] 0 | [19] 0 | [20] 0

C=CC(=O)Nc1cc(-n2c(=O)ccc3cnc4ccc(-c5ccc(NS(C)(=O)=O)cc5)cc4c32)ccc1C (10 µM)
inactive: [1] 0 | [2] 0 | [3] 0 | [4] 0 | [5] 0 | [6] 0 | [7] 0 | [8] 0 | [9] 0 | [10] 0 | [11] 0 | [12] 0 | [13] 0 | [14] 0 | [15] 0 | [16] 0 | [17] 0 | [18] 0 | [19] 0 | [20] 0

Cc1cccc2c3c(ccc12)C(=O)C1=C(OCC1C)C3=O (stereo not given) [Dihydroisotanshinone I] (2.5 µM)
inactive: [1] 0 | [2] 0 | [3] 0 | [4] 0 | [5] 0 | [6] 0 | [7] 0 | [8] 0 | [9] 0 | [10] 0 | [11] 0 | [12] 0 | [13] 0 | [14] 0 | [15] 0 | [16] 0 | [17] 0 | [18] 0 | [19] 0 | [20] 0

O=C(Nc1nc(=O)n(Cc2ccc(Cl)cc2)s1)c1ccc(Cl)cc1 (10 µM)
inactive: [1] 0 | [2] 0 | [3] 0 | [4] 0 | [5] 0 | [6] 0 | [7] 0 | [8] 0 | [9] 0 | [10] 0 | [11] 0 | [12] 0 | [13] 0 | [14] 0 | [15] 0 | [16] 0 | [17] 0 | [18] 0 | [19] 0 | [20] 0

O=C(O)c1cc(=O)c2c(OCC(O)COc3cccc4oc(C(=O)O)cc(=O)c34)cccc2o1 [Cromolyn (sodium)] (10 µM)
inactive: [1] 0 | [2] 0 | [3] 0 | [4] 0 | [5] 0 | [6] 0 | [7] 0 | [8] 0 | [9] 0 | [10] 0 | [11] 0 | [12] 0 | [13] 0 | [14] 0 | [15] 0 | [16] 0 | [17] 0 | [18] 0 | [19] 0 | [20] 0

N#Cc1ccnc(Nc2cc(C3CCN(C4COC4)CC3)cc(N3CCC(F)(F)C3)n2)c1 (2.5 µM)
inactive: [1] 0 | [2] 0 | [3] 0 | [4] 0 | [5] 0 | [6] 0 | [7] 0 | [8] 0 | [9] 0 | [10] 0 | [11] 0 | [12] 0 | [13] 0 | [14] 0 | [15] 0 | [16] 0 | [17] 0 | [18] 0 | [19] 0 | [20] 0

Cc1ncc(NC(=O)NC2c3ccccc3-c3ccccc32)c(-c2ccccc2)n1 (10 µM)
inactive: [1] 0 | [2] 0 | [3] 0 | [4] 0 | [5] 0 | [6] 0 | [7] 0 | [8] 0 | [9] 0 | [10] 0 | [11] 0 | [12] 0 | [13] 0 | [14] 0 | [15] 0 | [16] 0 | [17] 0 | [18] 0 | [19] 0 | [20] 0

Nc1nc(N)c2nc(-c3cccc(O)c3)cnc2n1 (10 µM)
inactive: [1] 0 | [2] 0 | [3] 0 | [4] 0 | [5] 0 | [6] 0 | [7] 0 | [8] 0 | [9] 0 | [10] 0 | [11] 0 | [12] 0 | [13] 0 | [14] 0 | [15] 0 | [16] 0 | [17] 0 | [18] 0 | [19] 0 | [20] 0

CC/C(=N\NC(=O)c1ccnc(NCCCN2CCOCC2)c1)c1ccc(Cl)cc1O (2.5 µM)
inactive: [1] 0 | [2] 0 | [3] 0 | [4] 0 | [5] 0 | [6] 0 | [7] 0 | [8] 0 | [9] 0 | [10] 0 | [11] 0 | [12] 0 | [13] 0 | [14] 0 | [15] 0 | [16] 0 | [17] 0 | [18] 0 | [19] 0 | [20] 0

O=C(O)c1cccc(CN2C(=O)/C(=C(\c3ccccc3)c3ccc(Cl)cc3)c3ccccc32)c1 (2.5 µM)
inactive: [1] 0 | [2] 0 | [3] 0 | [4] 0 | [5] 0 | [6] 0 | [7] 0 | [8] 0 | [9] 0 | [10] 0 | [11] 0 | [12] 0 | [13] 0 | [14] 0 | [15] 0 | [16] 0 | [17] 0 | [18] 0 | [19] 0 | [20] 0

For convenience, 2 of the compounds above:
Nc1nc(N)c2nc(-c3cccc(O)c3)cnc2n1 (10 µM)
inactive: [1] 0 | [2] 0 | [3] 0 | [4] 0 | [5] 0 | [6] 0 | [7] 0 | [8] 0 | [9] 0 | [10] 0 | [11] 0 | [12] 0 | [13] 0 | [14] 0 | [15] 0 | [16] 0 | [17] 0 | [18] 0 | [19] 0 | [20] 0

CC/C(=N\NC(=O)c1ccnc(NCCCN2CCOCC2)c1)c1ccc(Cl)cc1O (2.5 µM)
inactive: [1] 0 | [2] 0 | [3] 0 | [4] 0 | [5] 0 | [6] 0 | [7] 0 | [8] 0 | [9] 0 | [10] 0 | [11] 0 | [12] 0 | [13] 0 | [14] 0 | [15] 0 | [16] 0 | [17] 0 | [18] 0 | [19] 0 | [20] 0

Following part:

COc1cc2ncnc(Nc3ccccc3)c2cc1OC (10 µM)
inactive: [1] 0 | [2] 0 | [3] 0 | [4] 0 | [5] 0 | [6] 0 | [7] 0 | [8] 0 | [9] 0 | [10] 0 | [11] 0 | [12] 0 | [13] 0 | [14] 0 | [15] 0 | [16] 0 | [17] 0 | [18] 0 | [19] 0 | [20] 0

C[C@H](NC(=O)[C@H]1NCC[C@@H]1O)c1ccc(-c2noc(CCC3CCCC3)n2)cc1 (10 µM)
inactive: [1] 0 | [2] 0 | [3] 0 | [4] 0 | [5] 0 | [6] 0 | [7] 0 | [8] 0 | [9] 0 | [10] 0 | [11] 0 | [12] 0 | [13] 0 | [14] 0 | [15] 0 | [16] 0 | [17] 0 | [18] 0 | [19] 0 | [20] 0

CN(C)CCC=C1c2ccccc2CCc2ccccc21 [Amitriptyline (hydrochloride)] (2.5 µM)
inactive: [1] 0 | [2] 0 | [3] 0 | [4] 0 | [5] 0 | [6] 0 | [7] 0 | [8] 0 | [9] 0 | [10] 0 | [11] 0 | [12] 0 | [13] 0 | [14] 0 | [15] 0 | [16] 0 | [17] 0 | [18] 0 | [19] 0 | [20] 0

COc1cc(N2CCOCC2)ccc1Nc1ncc(Cl)c(Nc2ccccc2NS(C)(=O)=O)n1 (2.5 µM)
inactive: [1] 0 | [2] 0 | [3] 0 | [4] 0 | [5] 0 | [6] 0 | [7] 0 | [8] 0 | [9] 0 | [10] 0 | [11] 0 | [12] 0 | [13] 0 | [14] 0 | [15] 0 | [16] 0 | [17] 0 | [18] 0 | [19] 0 | [20] 0

C=C[C@@](C)(/C=C/c1ccc(O)cc1)CCC=C(C)C [Bakuchiol] (10 µM)
inactive: [1] 0 | [2] 0 | [3] 0 | [4] 0 | [5] 0 | [6] 0 | [7] 0 | [8] 0 | [9] 0 | [10] 0 | [11] 0 | [12] 0 | [13] 0 | [14] 0 | [15] 0 | [16] 0 | [17] 0 | [18] 0 | [19] 0 | [20] 0

Cn1cc(C2=C(c3cccc(N)c3)C(=O)NC2=O)c2ccccc21 (10 µM)
inactive: [1] 0 | [2] 0 | [3] 0 | [4] 0 | [5] 0 | [6] 0 | [7] 0 | [8] 0 | [9] 0 | [10] 0 | [11] 0 | [12] 0 | [13] 0 | [14] 0 | [15] 0 | [16] 0 | [17] 0 | [18] 0 | [19] 0 | [20] 0
